# Data as given in US20170189504A1, “NOVEL PEPTIDES AND COMBINATION OF PEPTIDES FOR USE IN IMMUNOTHERAPY AGAINST VARIOUS CANCERS” (immatics biotechnologies GmbH, priority 2015, published 2017).
# For some assays here: For expression read-outs the peptide stands for its source gene, whose mRNA was measured; the gene is not named for every peptide.
# How the values were obtained:
# [1] = system: HLA-A*24; assay: Identification and relative LC-MS quantitation of HLA-A*24-presented tumor-associated peptides on tissue samples (presentation profiles, Tables 14A, 14B, 16, FIG. 1); design: species or system human; key to Presentation score GC / Presentation score NSCLC / Presentation score PCA / Presentation score GB / Presentation score HCC / Presentation score RCC: specifically presented on tumors (++++); very highly over-presented on tumors compared to a panel of normal tissues (+++); highly over-presented on tumors compared to a panel of normal tissues (++); over-presented on tumors compared to a panel of normal tissues (+)
# [2] = system: source genes (mRNA); assay: Gene and exon expression of source genes, TCGA tumor samples compared with normal tissue samples (Lonsdale, 2013) (Table 17); design: species or system human
substance,measurement,setting,value
171: peptide found in SMG1 (gene looked up) (LFIPSSKLLFL; listed as Homo sapiens) [compound 171],Presentation score HCC,"[1]; HLA-A*24 peptides, hepatocellular carcinoma (N = 15) vs panel of normal tissues (N = 70)",+++
same,Presentation score NSCLC,"[1]; HLA-A*24 peptides, non-small cell lung cancer (N = 91) vs panel of normal tissues (N = 70)",+++
same,Presentation score RCC,"[1]; HLA-A*24 peptides, renal cell carcinoma (N = 2) vs panel of normal tissues (N = 70)",+++
same,Peptide Presentation on cancer entities,"[1]; Table 14A, HLA-A*24-binding tumor-associated peptides, cancer entities on which the peptide was found presented","NSCLC, HCC, RCC"
same,"Over-expression category of source gene (target coverage), BLCA","[2]; BLCA = Bladder urothelial carcinoma (N = 408), same cutoff","C (>=5% of tumors above the cutoff, but <20%)"
same,"Over-expression category of source gene (target coverage), BRCA","[2]; BRCA = Breast cancer (N = 1104), tumors more than 2-fold above highest 75% percentile of normal tissues","B (>= 20% of tumors above the cutoff, but <50%)"
same,"Over-expression category of source gene (target coverage), CHOL","[2]; CHOL = Cholangiocarcinoma (N = 36), same cutoff","C (>=5% of tumors above the cutoff, but <20%)"
same,"Over-expression category of source gene (target coverage), COAD","[2]; COAD = Colon and rectal adenocarcinoma (N = 462), same cutoff","B (>= 20% of tumors above the cutoff, but <50%)"
same,"Over-expression category of source gene (target coverage), DLBC","[2]; DLBC = Lymphoid neoplasm diffuse large B-cell lymphoma (N = 48), same cutoff","B (>= 20% of tumors above the cutoff, but <50%)"
same,"Over-expression category of source gene (target coverage), ESCA","[2]; ESCA = Esophageal cancer (N = 185), same cutoff","B (>= 20% of tumors above the cutoff, but <50%)"
same,"Over-expression category of source gene (target coverage), KICH","[2]; KICH = Kidney chromophobe (N = 66), same cutoff","B (>= 20% of tumors above the cutoff, but <50%)"
same,"Over-expression category of source gene (target coverage), KIRC","[2]; KIRC = Clear cell kidney carcinoma (N = 534), same cutoff","C (>=5% of tumors above the cutoff, but <20%)"
same,"Over-expression category of source gene (target coverage), KIRP","[2]; KIRP = Papillary kidney carcinoma (N = 291), same cutoff","C (>=5% of tumors above the cutoff, but <20%)"
same,"Over-expression category of source gene (target coverage), LAML","[2]; LAML = Acute Myeloid Leukemia (N = 173), same cutoff",A (>=50% of tumors above the cutoff)
same,"Over-expression category of source gene (target coverage), LGG","[2]; LGG = Lower grade glioma (N = 534), same cutoff","C (>=5% of tumors above the cutoff, but <20%)"
same,"Over-expression category of source gene (target coverage), LUAD","[2]; LUAD = Lung adenocarcinoma (N = 517), same cutoff","C (>=5% of tumors above the cutoff, but <20%)"
same,"Over-expression category of source gene (target coverage), LUSC","[2]; LUSC = Lung squamous cell carcinoma (N = 503), same cutoff","B (>= 20% of tumors above the cutoff, but <50%)"
same,"Over-expression category of source gene (target coverage), OV","[2]; OV = Ovarian serous cystadenocarcinoma (N = 309), same cutoff","C (>=5% of tumors above the cutoff, but <20%)"
same,"Over-expression category of source gene (target coverage), PAAD","[2]; PAAD = Pancreatic ductal adenocarcinoma (N = 179), same cutoff","C (>=5% of tumors above the cutoff, but <20%)"
same,"Over-expression category of source gene (target coverage), READ","[2]; READ = Colon and rectal adenocarcinoma (N = 167), same cutoff",A (>=50% of tumors above the cutoff)
same,"Over-expression category of source gene (target coverage), SKCM","[2]; SKCM = Skin cutaneous melanoma (N = 473), same cutoff","B (>= 20% of tumors above the cutoff, but <50%)"
same,"Over-expression category of source gene (target coverage), STAD","[2]; STAD = Stomach adenocarcinoma (N = 415), same cutoff","B (>= 20% of tumors above the cutoff, but <50%)"
same,"Over-expression category of source gene (target coverage), UCEC","[2]; UCEC = Uterine corpus endometrial carcinoma (N = 546), same cutoff",A (>=50% of tumors above the cutoff)
